Some of the results follow.
Compound: Cc1cccc(CC(=O)N2CCc3c2ccc(-c2cn(C)c4ncnc(N)c24)c3F)n1
Assay: log2 fold change, soluble protein after heating vs DMSO (PISA); higher = thermal stabilisation; K562 lysate, 10 uM; active = over 0.2 and 3.5 SD of the protein, either way, in both replicates (recomputed)
Summary of the method: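 The values are log-two fold changes in thermal stability compared with solvent controls and come from duplicates. They were obtained by TMTpro 16plex LC-MS/MS, with channel sums equalised, on the supernatant after 21,000xg for 90 min. That supernatant came from crude K562 extract at 1 mg/mL protein treated with 10 μM compound for 30 min, heated for 3 min across 48°C-58°C, pooled and brought to 0.5% NP-40 at 4°C.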

By UniProt entry, the sequences of proteins in these tests, tags left out. Where a name states a change or a piece, a line headed by the entry shows the natural chain unless it says otherwise.
UniProt Q9P2R7: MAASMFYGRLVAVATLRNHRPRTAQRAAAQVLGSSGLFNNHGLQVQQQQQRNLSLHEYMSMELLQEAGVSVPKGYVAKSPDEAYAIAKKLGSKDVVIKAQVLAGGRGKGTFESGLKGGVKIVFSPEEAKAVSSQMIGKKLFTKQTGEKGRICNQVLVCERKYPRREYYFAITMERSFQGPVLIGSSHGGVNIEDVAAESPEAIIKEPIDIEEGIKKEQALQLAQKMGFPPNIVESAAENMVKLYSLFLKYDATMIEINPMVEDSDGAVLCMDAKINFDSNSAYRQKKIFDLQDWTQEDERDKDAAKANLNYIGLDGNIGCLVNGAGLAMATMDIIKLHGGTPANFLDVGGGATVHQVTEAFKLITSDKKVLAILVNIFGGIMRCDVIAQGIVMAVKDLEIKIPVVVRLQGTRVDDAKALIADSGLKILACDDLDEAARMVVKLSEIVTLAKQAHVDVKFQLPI
UniProt Q13190: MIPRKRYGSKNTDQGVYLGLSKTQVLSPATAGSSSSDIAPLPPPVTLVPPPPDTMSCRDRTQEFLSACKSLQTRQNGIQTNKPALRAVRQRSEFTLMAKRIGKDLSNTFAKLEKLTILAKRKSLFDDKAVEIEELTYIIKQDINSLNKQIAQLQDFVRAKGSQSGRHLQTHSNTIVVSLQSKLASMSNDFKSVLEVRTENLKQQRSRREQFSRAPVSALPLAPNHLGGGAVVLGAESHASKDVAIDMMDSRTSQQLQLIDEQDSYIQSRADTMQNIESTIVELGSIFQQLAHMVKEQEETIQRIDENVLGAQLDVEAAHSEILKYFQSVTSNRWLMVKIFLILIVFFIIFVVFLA
UniProt Q93045: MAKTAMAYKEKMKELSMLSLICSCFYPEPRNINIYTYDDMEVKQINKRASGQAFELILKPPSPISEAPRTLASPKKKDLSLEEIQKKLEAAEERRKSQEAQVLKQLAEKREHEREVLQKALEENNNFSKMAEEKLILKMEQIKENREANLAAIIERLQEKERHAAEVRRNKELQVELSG
UniProt Q96BN2: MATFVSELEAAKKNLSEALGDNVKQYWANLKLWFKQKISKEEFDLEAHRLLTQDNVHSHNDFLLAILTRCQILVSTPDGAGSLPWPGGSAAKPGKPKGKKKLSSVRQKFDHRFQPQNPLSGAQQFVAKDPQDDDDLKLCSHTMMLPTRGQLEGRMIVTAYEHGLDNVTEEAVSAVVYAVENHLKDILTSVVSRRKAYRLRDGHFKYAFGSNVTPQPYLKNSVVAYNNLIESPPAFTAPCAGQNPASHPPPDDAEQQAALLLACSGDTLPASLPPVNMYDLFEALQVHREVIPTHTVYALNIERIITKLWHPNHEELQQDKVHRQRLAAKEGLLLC
UniProt Q9UNE7: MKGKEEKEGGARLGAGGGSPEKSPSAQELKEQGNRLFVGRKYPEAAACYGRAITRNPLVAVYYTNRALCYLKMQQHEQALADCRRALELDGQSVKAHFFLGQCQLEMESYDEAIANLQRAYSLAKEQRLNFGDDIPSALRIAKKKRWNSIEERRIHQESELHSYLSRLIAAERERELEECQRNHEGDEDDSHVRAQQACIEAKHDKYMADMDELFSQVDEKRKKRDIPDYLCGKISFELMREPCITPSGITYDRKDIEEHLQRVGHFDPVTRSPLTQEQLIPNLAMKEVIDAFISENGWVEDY
UniProt Q12962, whole entry, looked up: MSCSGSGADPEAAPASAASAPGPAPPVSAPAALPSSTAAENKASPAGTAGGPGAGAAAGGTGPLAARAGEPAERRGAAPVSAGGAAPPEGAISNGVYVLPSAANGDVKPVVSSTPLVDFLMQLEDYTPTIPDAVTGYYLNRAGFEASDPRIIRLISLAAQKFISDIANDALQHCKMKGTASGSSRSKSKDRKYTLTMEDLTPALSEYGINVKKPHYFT
UniProt Q8NBJ7: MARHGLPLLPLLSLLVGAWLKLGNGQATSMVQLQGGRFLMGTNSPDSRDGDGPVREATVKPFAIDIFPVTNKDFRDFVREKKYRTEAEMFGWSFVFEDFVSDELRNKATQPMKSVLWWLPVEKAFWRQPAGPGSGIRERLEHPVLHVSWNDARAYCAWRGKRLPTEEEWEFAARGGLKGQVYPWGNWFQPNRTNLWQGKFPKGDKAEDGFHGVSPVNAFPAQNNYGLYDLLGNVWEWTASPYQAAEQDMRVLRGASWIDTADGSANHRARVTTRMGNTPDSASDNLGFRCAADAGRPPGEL
UniProt P27105: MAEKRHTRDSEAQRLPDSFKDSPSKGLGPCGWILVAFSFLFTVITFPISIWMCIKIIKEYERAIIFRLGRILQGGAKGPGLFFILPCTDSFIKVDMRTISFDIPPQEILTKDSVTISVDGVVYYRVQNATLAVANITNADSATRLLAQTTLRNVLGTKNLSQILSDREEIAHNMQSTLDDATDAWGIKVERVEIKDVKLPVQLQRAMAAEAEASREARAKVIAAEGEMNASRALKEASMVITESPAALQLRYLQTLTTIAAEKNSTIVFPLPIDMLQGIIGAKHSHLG
UniProt Q15526: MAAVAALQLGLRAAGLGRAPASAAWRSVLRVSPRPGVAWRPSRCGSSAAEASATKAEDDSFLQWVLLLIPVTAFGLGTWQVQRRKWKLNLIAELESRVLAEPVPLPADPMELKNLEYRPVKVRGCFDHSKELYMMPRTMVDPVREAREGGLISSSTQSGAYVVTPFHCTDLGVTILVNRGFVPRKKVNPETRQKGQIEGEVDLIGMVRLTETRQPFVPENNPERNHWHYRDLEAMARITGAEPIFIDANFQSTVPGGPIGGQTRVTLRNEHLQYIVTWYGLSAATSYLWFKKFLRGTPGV
UniProt O60506: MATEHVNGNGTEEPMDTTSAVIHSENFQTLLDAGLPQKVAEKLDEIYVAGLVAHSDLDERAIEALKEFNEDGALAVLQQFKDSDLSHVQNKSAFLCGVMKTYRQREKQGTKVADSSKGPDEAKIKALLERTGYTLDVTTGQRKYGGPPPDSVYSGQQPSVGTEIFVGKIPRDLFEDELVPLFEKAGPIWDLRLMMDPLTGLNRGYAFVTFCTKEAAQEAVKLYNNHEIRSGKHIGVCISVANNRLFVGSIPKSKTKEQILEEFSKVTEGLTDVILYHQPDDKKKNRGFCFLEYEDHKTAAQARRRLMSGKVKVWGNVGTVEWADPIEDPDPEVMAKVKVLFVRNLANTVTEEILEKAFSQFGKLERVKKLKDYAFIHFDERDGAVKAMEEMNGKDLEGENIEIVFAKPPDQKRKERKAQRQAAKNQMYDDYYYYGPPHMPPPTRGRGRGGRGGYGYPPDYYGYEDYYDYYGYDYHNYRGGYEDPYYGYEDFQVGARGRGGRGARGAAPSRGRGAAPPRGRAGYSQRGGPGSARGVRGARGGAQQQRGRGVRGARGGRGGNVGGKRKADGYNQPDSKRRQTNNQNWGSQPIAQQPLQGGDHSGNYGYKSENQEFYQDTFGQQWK
UniProt O14662: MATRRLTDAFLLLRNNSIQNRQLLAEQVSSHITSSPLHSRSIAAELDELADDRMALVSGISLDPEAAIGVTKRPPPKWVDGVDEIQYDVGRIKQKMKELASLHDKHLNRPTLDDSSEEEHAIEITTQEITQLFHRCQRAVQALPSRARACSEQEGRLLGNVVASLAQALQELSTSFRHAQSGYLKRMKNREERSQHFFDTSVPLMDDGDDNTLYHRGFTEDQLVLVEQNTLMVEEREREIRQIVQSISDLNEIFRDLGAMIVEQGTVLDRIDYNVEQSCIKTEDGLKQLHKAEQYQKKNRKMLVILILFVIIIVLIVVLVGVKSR
UniProt Q8N1F8: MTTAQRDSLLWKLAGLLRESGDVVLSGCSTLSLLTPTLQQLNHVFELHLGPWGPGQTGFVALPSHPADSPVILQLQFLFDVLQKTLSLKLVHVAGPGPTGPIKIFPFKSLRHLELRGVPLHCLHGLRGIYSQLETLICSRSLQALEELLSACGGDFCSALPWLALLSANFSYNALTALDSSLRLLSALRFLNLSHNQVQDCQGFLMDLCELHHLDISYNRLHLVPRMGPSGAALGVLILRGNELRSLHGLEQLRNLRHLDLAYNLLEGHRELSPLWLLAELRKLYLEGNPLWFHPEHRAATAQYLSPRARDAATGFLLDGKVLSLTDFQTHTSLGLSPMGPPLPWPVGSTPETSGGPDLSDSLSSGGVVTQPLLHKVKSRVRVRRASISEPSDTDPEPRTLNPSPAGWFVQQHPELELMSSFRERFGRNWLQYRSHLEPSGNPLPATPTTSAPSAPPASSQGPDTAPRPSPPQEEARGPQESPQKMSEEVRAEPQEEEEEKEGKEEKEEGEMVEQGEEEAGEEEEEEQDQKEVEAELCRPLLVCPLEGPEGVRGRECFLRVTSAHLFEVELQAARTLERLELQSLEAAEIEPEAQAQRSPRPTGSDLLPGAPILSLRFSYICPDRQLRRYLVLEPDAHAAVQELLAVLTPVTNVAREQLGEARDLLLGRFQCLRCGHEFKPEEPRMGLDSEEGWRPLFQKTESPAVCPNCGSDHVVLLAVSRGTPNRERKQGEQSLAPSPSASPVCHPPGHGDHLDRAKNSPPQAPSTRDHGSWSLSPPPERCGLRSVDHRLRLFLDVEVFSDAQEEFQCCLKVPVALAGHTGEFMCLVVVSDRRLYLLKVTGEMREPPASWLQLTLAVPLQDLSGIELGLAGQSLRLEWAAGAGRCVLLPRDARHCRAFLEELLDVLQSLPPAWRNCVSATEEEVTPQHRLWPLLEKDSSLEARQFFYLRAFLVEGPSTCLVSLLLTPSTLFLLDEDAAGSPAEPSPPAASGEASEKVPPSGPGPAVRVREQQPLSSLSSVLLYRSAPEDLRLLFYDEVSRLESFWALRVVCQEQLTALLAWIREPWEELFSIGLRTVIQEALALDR
UniProt P53597: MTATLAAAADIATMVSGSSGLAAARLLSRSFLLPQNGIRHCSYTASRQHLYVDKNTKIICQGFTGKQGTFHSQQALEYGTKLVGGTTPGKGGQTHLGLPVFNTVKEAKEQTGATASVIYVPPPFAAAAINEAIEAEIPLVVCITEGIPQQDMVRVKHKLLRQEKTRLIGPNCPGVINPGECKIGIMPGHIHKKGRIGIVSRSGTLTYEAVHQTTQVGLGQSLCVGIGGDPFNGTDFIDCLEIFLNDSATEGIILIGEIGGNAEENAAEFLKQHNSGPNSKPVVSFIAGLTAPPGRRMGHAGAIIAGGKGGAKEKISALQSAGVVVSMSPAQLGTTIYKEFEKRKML
UniProt Q9Y3F4: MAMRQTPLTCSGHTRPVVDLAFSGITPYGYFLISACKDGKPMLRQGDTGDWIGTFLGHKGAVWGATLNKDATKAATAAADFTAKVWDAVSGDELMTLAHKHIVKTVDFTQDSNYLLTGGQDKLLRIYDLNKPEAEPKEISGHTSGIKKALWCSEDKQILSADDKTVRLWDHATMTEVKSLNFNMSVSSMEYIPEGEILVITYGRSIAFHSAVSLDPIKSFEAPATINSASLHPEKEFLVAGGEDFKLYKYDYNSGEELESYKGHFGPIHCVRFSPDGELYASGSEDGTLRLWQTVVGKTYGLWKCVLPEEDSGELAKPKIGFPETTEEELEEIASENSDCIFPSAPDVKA
UniProt Q15022: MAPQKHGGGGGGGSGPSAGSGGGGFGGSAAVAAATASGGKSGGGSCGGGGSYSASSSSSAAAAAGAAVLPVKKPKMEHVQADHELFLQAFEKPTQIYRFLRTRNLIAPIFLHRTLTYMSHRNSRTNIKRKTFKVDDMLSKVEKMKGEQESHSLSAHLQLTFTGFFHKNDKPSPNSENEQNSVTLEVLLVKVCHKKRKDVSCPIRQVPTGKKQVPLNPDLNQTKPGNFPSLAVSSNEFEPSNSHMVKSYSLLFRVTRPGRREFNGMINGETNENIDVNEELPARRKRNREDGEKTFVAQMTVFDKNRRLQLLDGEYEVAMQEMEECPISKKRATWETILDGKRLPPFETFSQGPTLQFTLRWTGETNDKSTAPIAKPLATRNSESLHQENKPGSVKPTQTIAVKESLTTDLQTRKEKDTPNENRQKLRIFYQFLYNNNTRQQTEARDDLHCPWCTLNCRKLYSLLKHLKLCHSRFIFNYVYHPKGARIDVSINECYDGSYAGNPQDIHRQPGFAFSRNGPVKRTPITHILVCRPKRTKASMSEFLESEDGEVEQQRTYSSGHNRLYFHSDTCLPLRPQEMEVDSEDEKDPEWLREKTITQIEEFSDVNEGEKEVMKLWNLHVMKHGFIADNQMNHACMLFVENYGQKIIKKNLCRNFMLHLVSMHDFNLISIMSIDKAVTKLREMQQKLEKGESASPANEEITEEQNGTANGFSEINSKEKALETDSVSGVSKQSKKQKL
UniProt P55854, whole entry, looked up: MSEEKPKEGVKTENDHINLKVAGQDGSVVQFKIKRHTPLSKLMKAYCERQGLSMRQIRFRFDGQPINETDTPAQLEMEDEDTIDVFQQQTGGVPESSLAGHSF
UniProt Q8NHG7: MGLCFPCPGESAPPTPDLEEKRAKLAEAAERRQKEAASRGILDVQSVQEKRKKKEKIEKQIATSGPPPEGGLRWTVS

log2 fold change, inactive:
SUCLA2 (UniProt Q9P2R7) 0.108, TAB1 (UniProt Q15750) -0.001, STX5 (UniProt Q13190) 0.078, SYNGR2 (UniProt O43760) 0.07, STMN2 isoform 2 (UniProt Q93045) -0.139, TADA1 (UniProt Q96BN2) 0.081, STUB1 (UniProt Q9UNE7) 0.05, TAF10 (UniProt Q12962) -0.005, SUMF2 (UniProt Q8NBJ7) 0.022, STOM (UniProt P27105) 0.013, SURF1 (UniProt Q15526) 0.015, SYNCRIP (UniProt O60506) -0.02, STRN3 (UniProt Q13033) -0.117, STX16 isoform 2 (UniProt O14662) 0.026, STK11IP (UniProt Q8N1F8) 0.036, SUCLG1 (UniProt P53597) -0.003, STK39 (UniProt Q9UEW8) 0.057, STRAP isoform 2 (UniProt Q9Y3F4) -0.047, SUZ12 (UniProt Q15022) 0.009, SUMO3 isoform 2 (UniProt P55854) 0, TACC3 (UniProt Q9Y6A5) 0, SYNE2 isoform 2 (UniProt Q8WXH0) 0.397, SVIP (UniProt Q8NHG7) 0.032
